Taken from: PubChem BioAssay AID1159584 (Peter MacCallum Cancer Centre, 2016)

Assay: 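Knock-downs that harm CDH1-null cells more than parental MCF10A cells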 (primary screen)
Cell system: human MCF10A breast epithelial cells, parental and CDH1-null
Reagent: siRNA against human genes
Detection: 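ATP luminescence (CellTiter-Glo) viability per line relative to mean mock wells over all plates, and the ratio of CDH1-null to parental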
Scale: CDH1-null / parental viability ratio: higher = CDH1-null cells survive relatively better than parental
Here is a random part of about 18,000 reagents. Further read-outs or replicates are left out here. Not stated in the record: the amount of reagent, the time to read-out.

gene	CDH1-null / parental viability ratio
PHOX2B	0.9
USP4	1.04
XRN1	1
DGKD	0.79
CLVS2	1.48
RINT1	0.81
PPFIA3	1.47
HACD1	1.18
TEX14	0.88
SEMA3E	0.94
RPS4X	1.67
FAM3A	1.09
POF1B	1
BRK1	1.02
MS4A7	0.76
RPN2	0.86

No new results follow: entries from further up.
gene	CDH1-null / parental viability ratio
USP4	1.04
XRN1	1
DGKD	0.79
CLVS2	1.48

More results follow:
gene	CDH1-null / parental viability ratio
CHRNA4	1.38
PTPRZ1	1.04
CEP41	1.08
LMOD3	0.91
AMT	1.17
EIF3I	0.94
FKBP1A	0.99
ACOT2	0.84
FBXL6	0.83
LAMA4	1.18
DRP2	0.8
IL11RA	1.15
